Laboratory results published in patent US20220220174A1.
These are yes or no findings as the source states them, for the method shown. Some entries that bind do so weakly or less than the wild type.

The chains behind the UniProt entries cited, without tags or fusion partners. Where a name states a change or a piece, a line headed by the entry shows the natural chain unless it says otherwise.
UniProt O55003: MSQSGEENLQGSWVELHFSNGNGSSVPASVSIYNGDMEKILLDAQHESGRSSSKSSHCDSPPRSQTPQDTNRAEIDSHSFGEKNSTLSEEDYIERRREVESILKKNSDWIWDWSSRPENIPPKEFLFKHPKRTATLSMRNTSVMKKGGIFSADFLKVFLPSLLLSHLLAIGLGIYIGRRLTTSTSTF

Target: recombinant BNIP3 (BCL-2 adenovirus E1B 19 kDa interacting protein-3) (mouse) (UniProt O55003)
Assay: peptide microarray, immobilised peptide, recombinant BNIP3

B1: peptide containing BNIP3 amino acids 13-20 with a Ser-to-Phe substitution at position 19 (WVELHFFN) (peptide)
peptide: WVELHFFN
binding: binds
